Values from PubChem BioAssay AID504764 (Drosophila RNAi Screening Center, 2011)

Assay: 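Genome-wide screen for regulators of Notch-driven gene expression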 (primary screen)
Cells: Drosophila Kc167 cells
Reagents: long dsRNA against Drosophila genes
Timing: about 5 days (4 days dsRNA, then 24 h after transfection)
Challenge: transfection of constitutively active membrane-tethered Notch lacking the extracellular domain, read 24 h later
Detection: 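Firefly luciferase from an E(spl)m3 reporter with active Notch, plus control-promoter and uninduced reporter wells for normalisation; unnormalised counts, duplicate wells a and b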
Reading the numbers: induced reporter light, run 1, well a and induced reporter light, run 1, well b: higher = more light from the Notch target reporter with active Notch; control promoter light, run 1, well a and control promoter light, run 1, well b: higher = more light from the viral control promoter (cell number, transfection, viability); uninduced reporter light, run 1, well a: higher = more light from the Notch target reporter without active Notch
Call rule: 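Wells with low control signal or poorly matching duplicates excluded; duplicates averaged; per source plate, z beyond ±2 for induced/control log2 ratio or beyond ±1.8 for induced/uninduced marks a hit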
Meaning of the calls: active = modifier hit (raised or lowered Notch signal); inactive = not a hit
In all, the deposit lists about 22,000 reagents; this is a random part of those that have a named target and a result. Over the whole deposit, 403 (1.9%) were called active. 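Unnormalised raw counts per well; ratio z-scores behind the hit calls and whether each hit raises or lowers signal are not deposited.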 Names joined by + are all predicted targets of the reagent. Reagent sequences are not shown. The record does not give: the amount of reagent.

gene knocked down | DRSC id | induced reporter light, run 1, well a | induced reporter light, run 1, well b | control promoter light, run 1, well a | control promoter light, run 1, well b | uninduced reporter light, run 1, well a | Call
CG31010 | DRSC14006 | 92590 | 1.09e5 | 1.46e5 | 1.28e5 | 9520 | inactive
CG42380 + CG42379 + PIG-M + 1 more | DRSC03884 | 62515 | 70605 | 67145 | 80040 | 6455 | inactive
CG42380 + CG42379 + PIG-M + 1 more | DRSC04580 | 2.30e5 | 2.59e5 | 1.84e5 | 2.04e5 | 15710 | inactive
amd | DRSC02608 | 39670 | 33850 | 28235 | 27370 | 2285 | inactive
amd | DRSC03483 | 51055 | 44070 | 43880 | 46640 | 3315 | inactive
Prp5 | DRSC19975 | 80125 | 91235 | 1.17e5 | 1.14e5 | 12005 | inactive
CG17721 | DRSC15253 | 71770 | 65310 | 65540 | 46280 | 3328 | inactive
CG10209 | DRSC05980 | 2.26e5 | 1.86e5 | 1.51e5 | 1.53e5 | 14365 | inactive
CAH1 + Adat1 | DRSC02009 | 2.42e5 | 2.50e5 | 2.07e5 | 2.20e5 | 19705 | inactive
CG8249 | DRSC07125 | 1.28e5 | 88230 | 1.25e5 | 1.33e5 | 10550 | inactive
jar | DRSC16974 | 1.98e5 | 1.99e5 | 2.22e5 | 2.17e5 | 16492 | inactive
omd | DRSC16507 | 80230 | 74205 | 31525 | 31235 | 18870 | inactive
Mnat9 | DRSC14325 | 1.29e5 | 1.40e5 | 2.40e5 | 1.77e5 | 8720 | inactive
CG32523 | DRSC20510 | 87000 | 1.12e5 | 77260 | 1.08e5 | 7885 | inactive
pasi2 | DRSC16380 | 1.39e5 | 1.32e5 | 1.10e5 | 73260 | 5505 | inactive
CG9776 | DRSC12127 | 83575 | 1.24e5 | 49585 | 52185 | 7760 | inactive
deltaCOP | DRSC18760 | 17165 | 16160 | 35495 | 38340 | 1095 | inactive
BaraB | DRSC06420 | 1.94e5 | 2.31e5 | 2.09e5 | 2.28e5 | 18378 | inactive
Eig71Ed | DRSC11151 | 1.76e5 | 1.64e5 | 2.46e5 | 2.29e5 | 4510 | inactive
ND-19 | DRSC04404 | 1.69e5 | 1.54e5 | 1.42e5 | 1.44e5 | 10980 | inactive

No new results follow: an excerpt of the list.
gene knocked down | DRSC id | induced reporter light, run 1, well a | induced reporter light, run 1, well b | control promoter light, run 1, well a | control promoter light, run 1, well b | uninduced reporter light, run 1, well a | Call
CG10209 | DRSC05980 | 2.26e5 | 1.86e5 | 1.51e5 | 1.53e5 | 14365 | inactive
CAH1 + Adat1 | DRSC02009 | 2.42e5 | 2.50e5 | 2.07e5 | 2.20e5 | 19705 | inactive
